For assay [1], the target named is Pyruvate kinase M2 (human (endogenous in HeLa)) (UniProt P14618). In words: co-IP; Dynabeads pre-coated with 0.6 µg anti-PKM2 antibody (Cell Signaling Cat. 4053) or normal rabbit control IgG; lysates of HeLa WT and PKM2 KO cells (CHAPS lysis buffer, 1.0 mg in 1 mL) incubated with Ctrl or D5SD peptide (200 µM), overnight at 4 °C; Western blot for IP3R1, IP3R3, PKM1, PKM2.

Sequences of proteins named here, by UniProt entry; tags and fusion partners are left off. A change or cut given only in a name is not applied to a line headed by its entry. A line that says so, or that is headed by a name, gives the form on record, which may keep a tag or linker.
UniProt P14618: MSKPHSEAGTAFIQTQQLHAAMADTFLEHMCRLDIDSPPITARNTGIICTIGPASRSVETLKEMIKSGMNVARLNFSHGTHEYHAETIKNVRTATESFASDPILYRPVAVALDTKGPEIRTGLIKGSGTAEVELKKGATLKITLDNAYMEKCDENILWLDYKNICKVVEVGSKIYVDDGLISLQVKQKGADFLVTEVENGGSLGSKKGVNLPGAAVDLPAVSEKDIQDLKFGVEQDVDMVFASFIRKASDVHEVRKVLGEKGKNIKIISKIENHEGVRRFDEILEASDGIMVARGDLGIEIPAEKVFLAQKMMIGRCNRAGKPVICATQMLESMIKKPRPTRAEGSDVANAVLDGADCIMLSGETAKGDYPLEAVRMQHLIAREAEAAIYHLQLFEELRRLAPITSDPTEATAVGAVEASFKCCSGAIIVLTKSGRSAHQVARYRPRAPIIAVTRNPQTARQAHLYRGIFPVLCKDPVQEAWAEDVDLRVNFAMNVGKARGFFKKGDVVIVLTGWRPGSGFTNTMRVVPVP
Pyruvate kinase M1 (human (endogenous in HeLa)) (P14618, form named): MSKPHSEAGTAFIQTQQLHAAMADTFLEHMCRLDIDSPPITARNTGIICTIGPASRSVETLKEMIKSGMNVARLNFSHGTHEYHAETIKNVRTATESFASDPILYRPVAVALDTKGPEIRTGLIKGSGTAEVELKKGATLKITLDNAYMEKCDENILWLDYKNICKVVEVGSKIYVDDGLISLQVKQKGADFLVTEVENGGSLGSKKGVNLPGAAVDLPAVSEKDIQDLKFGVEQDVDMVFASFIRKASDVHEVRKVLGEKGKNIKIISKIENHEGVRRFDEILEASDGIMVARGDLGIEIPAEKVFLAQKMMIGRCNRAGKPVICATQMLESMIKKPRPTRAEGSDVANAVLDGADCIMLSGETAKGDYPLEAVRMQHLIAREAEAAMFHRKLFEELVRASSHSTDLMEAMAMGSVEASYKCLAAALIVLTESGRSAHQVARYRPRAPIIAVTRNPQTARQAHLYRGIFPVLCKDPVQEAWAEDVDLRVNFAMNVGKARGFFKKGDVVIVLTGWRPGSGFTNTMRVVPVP
UniProt Q14573: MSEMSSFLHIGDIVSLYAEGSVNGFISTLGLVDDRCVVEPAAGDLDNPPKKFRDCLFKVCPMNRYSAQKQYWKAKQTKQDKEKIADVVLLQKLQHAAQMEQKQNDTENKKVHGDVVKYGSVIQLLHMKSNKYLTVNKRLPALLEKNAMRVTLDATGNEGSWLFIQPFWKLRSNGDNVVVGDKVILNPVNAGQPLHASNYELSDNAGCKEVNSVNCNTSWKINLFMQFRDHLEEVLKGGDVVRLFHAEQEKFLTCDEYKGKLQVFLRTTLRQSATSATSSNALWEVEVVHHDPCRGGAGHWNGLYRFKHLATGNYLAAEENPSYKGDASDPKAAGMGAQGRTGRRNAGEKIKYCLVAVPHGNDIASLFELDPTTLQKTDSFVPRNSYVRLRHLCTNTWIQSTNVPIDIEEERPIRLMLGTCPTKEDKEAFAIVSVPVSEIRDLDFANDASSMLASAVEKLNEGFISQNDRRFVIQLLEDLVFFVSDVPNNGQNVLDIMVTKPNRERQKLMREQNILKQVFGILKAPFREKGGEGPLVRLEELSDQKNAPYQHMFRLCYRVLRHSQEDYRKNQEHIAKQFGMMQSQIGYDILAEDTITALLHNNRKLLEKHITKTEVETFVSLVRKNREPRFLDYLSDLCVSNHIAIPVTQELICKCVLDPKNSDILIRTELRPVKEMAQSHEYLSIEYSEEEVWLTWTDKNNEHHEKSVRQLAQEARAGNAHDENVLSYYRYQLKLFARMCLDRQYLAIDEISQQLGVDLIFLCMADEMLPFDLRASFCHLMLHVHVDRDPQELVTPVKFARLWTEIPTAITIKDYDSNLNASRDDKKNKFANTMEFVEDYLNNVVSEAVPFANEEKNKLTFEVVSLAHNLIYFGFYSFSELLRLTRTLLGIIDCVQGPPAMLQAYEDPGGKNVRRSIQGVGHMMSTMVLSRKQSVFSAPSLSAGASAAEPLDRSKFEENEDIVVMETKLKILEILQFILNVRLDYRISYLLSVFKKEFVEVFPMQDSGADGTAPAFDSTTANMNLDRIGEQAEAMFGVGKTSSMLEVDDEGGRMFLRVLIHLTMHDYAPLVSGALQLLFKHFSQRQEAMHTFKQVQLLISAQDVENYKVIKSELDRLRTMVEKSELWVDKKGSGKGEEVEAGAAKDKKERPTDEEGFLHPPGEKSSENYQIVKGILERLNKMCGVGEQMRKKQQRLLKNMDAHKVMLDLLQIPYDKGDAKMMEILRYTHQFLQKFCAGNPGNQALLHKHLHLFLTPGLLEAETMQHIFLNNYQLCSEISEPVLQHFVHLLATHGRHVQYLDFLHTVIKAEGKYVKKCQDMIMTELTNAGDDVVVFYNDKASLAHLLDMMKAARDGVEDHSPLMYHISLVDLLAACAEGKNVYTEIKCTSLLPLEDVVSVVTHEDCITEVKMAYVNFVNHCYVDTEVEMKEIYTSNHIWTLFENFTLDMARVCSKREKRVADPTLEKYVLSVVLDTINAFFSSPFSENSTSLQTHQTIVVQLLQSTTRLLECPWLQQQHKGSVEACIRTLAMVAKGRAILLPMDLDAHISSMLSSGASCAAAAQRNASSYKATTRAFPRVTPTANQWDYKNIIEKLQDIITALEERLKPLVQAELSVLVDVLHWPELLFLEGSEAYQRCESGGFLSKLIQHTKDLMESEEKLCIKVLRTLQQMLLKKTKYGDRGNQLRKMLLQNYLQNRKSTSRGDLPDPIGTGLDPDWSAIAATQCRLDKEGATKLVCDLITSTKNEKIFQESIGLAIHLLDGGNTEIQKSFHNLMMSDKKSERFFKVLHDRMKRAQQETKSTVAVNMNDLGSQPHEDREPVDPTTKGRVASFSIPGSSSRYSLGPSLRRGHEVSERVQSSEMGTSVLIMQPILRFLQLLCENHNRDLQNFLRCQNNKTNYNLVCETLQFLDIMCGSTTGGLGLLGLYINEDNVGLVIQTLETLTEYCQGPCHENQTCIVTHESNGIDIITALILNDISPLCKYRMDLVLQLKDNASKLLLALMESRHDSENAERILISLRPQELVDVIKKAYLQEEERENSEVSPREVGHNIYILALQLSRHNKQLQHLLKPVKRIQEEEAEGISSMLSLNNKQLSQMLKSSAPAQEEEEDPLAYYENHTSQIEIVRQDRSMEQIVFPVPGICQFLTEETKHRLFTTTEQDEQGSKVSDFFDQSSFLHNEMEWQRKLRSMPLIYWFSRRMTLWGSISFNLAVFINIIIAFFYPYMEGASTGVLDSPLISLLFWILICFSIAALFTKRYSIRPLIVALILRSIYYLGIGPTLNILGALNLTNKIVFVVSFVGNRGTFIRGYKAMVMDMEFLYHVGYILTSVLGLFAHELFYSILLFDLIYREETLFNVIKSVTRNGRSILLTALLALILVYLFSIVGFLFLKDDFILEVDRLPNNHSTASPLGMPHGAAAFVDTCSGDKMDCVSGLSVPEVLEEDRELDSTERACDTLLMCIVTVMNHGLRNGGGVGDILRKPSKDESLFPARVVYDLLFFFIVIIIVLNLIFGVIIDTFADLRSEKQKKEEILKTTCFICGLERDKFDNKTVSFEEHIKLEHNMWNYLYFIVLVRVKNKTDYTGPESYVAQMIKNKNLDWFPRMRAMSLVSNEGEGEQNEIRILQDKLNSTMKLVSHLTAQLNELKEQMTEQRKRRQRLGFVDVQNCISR

Assay [2] has as its target Pyruvate kinase M1 (human (endogenous in HeLa)) (UniProt P14618). Description: co-IP; competition: D5SD peptide (200 µM; Ctrl peptide as control) added to HeLa WT or PKM2 KO lysate for at least 1 h at 4 °C before immunoprecipitation with anti-PKM2 antibody; loss of IP3R from the precipitate read by Western blot; only the binder purified.
In assay [3] the target is Pyruvate kinase M2 (human (endogenous in HeLa)) (UniProt P14618). The assay is described as above.

These are yes or no findings as the source states them, for the method shown. Binding seen in cells or lysates may run through a third protein. Some entries that bind do so weakly or less than the wild type.

For “Inositol 1,4,5-trisphosphate receptor type 3 (from UniProt Q14573 1-2671)”, in assay [1], the binding result is recorded as “binds”. With KKRMDLVLELKNNASKLLLAI (peptide, UniProt P11881 2078-2098) [D5SD peptide], the binding result in assay [2] and in assay [3] was “binds” each time.

The record behind these values is paper PMC10647343.
